Results deposited as PubChem BioAssay AID1224830 (NIAID, 2016).

- Aim: 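Host factors that control LPS-induced TNF expression in human macrophages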 (primary screen)
- System: human THP-1 monocytic leukaemia cells, TNF dual-luciferase reporter clone, PMA-differentiated to macrophage-like cells
- Reagents: siRNA pool against human genes, 50 nM
- Time to read-out: LPS for 4 h, given about 3 days after siRNA transfection
- Conditions: bacterial LPS (TLR4 ligand), 10 ng/ml
- Measurement: 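TNF firefly reporter luminescence divided by renilla, normalised to the plate median, then turned into a robust z-score for each replicate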
- Direction: TNF reporter robust z-score: higher = stronger TNF reporter response to LPS
- Hit rule: 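a well is active when its z-score exceeds 2.8 or falls below -1.5; control wells carry no call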
The whole screen tested about 18,000 reagents; below is an unselected part. Over the whole deposit, about 2,900 (16%) got an active call. 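Calls are made per well; low scores hint the gene aids the LPS response, high scores that it dampens it.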 A number with no mark means an inactive call. Repeated entries: four replicate wells of each siRNA pool. No sequences are given here.

OR2A2 — TNF reporter robust z-score = -0.38
OR2A2 — TNF reporter robust z-score = 0.43
OR2A2 — TNF reporter robust z-score = 0.23
OR2A2 — TNF reporter robust z-score = 0.71
RUSC2 — TNF reporter robust z-score = -0.99
RUSC2 — TNF reporter robust z-score = -0.22
RUSC2 — TNF reporter robust z-score = -0.36
RUSC2 — TNF reporter robust z-score = -0.37
ZNF225 — TNF reporter robust z-score = -0.46
ZNF225 — TNF reporter robust z-score = -1.08
ZNF225 — TNF reporter robust z-score = -1.38
ZNF225 — TNF reporter robust z-score = -1.15
POLR2I — TNF reporter robust z-score = -0.07
POLR2I — TNF reporter robust z-score = 0.14
POLR2I — TNF reporter robust z-score = -0.22
POLR2I — TNF reporter robust z-score = 0.42
RBPMS2 — TNF reporter robust z-score = 0.55
RBPMS2 — TNF reporter robust z-score = 0.33
RBPMS2 — TNF reporter robust z-score = 0.54
RBPMS2 — TNF reporter robust z-score = 0.1
EGLN3 — TNF reporter robust z-score = 0.47
EGLN3 — TNF reporter robust z-score = 1.38
EGLN3 — TNF reporter robust z-score = 0.5
EGLN3 — TNF reporter robust z-score = 2.23
CD3E — TNF reporter robust z-score = 2.52
CD3E — TNF reporter robust z-score = 0.69
CD3E — TNF reporter robust z-score = 0.57
CD3E — TNF reporter robust z-score = 2.63
GADL1 — TNF reporter robust z-score = 0.14
GADL1 — TNF reporter robust z-score = 0.97
GADL1 — TNF reporter robust z-score = -0.06
GADL1 — TNF reporter robust z-score = 1.43
SNX19 — TNF reporter robust z-score = 0.95
SNX19 — TNF reporter robust z-score = 2.02
SNX19 — TNF reporter robust z-score = 1.5
SNX19 — TNF reporter robust z-score = 2.5
CACNA1F — TNF reporter robust z-score = -1.66 (active)
CACNA1F — TNF reporter robust z-score = 1.72
CACNA1F — TNF reporter robust z-score = 0.34
CACNA1F — TNF reporter robust z-score = -0.25
ALOX12B — TNF reporter robust z-score = 0.07
ALOX12B — TNF reporter robust z-score = 0.03
ALOX12B — TNF reporter robust z-score = 0.63
ALOX12B — TNF reporter robust z-score = 0.61
CILK1 — TNF reporter robust z-score = -0.48
CILK1 — TNF reporter robust z-score = 1.45
CILK1 — TNF reporter robust z-score = 0.1
CILK1 — TNF reporter robust z-score = 0.83
KPNA3 — TNF reporter robust z-score = -0.72
KPNA3 — TNF reporter robust z-score = -0.32
KPNA3 — TNF reporter robust z-score = -0.26
ADGRG2 — TNF reporter robust z-score = -0.92
ADGRG2 — TNF reporter robust z-score = -0.73
ADGRG2 — TNF reporter robust z-score = -0.71
ADGRG2 — TNF reporter robust z-score = -0.91
SLC27A4 — TNF reporter robust z-score = -0.31
SLC27A4 — TNF reporter robust z-score = 1.43
SLC27A4 — TNF reporter robust z-score = 0.21
SLC27A4 — TNF reporter robust z-score = 1.49
SLC39A12 — TNF reporter robust z-score = -0.14
SLC39A12 — TNF reporter robust z-score = -0.17
SLC39A12 — TNF reporter robust z-score = 0.15
SLC39A12 — TNF reporter robust z-score = 0.29
